PubChem BioAssay AID504784 – Drosophila RNAi Screening Center | 2011
Purpose: 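Search for regulators of lipid droplet storage in oleate-fed fly cells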 (primary screen). System: Drosophila Kc167 embryonic cells. Reagents: long dsRNA against Drosophila genes, about 250 ng dsRNA per well. Time to read-out: 4 days. Conditions: cells fed 400 µM oleic acid bound to BSA. Measurement: 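Microscope images give a droplet-to-nucleus area ratio, taken as log and converted to a screen-wide B-score; higher values mean greater lipid storage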. Direction: droplet/nuclear area B-score: higher = more stored lipid (overstorage).
The screen tested about 17,000 reagents; this is a random part of those that have a named target and a result. 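Each column is one replicate's B-score; the combined score over replicates was not deposited, so single values may mislead.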 A plus sign joins genes that one reagent is predicted to hit. Not all columns of the deposit are shown. Reagent sequences are not shown.

BBS5 (Bardet-Biedl syndrome 5) [DRSC12168] | droplet/nuclear area B-score, replicate 1: 0.593
RpL32 (Ribosomal protein L32) [DRSC16835] | droplet/nuclear area B-score, replicate 1: 8.75
CG12773 [DRSC18580] | droplet/nuclear area B-score, replicate 1: 0.575
Mst84Db (Male-specific RNA 84Db) [DRSC12542] | droplet/nuclear area B-score, replicate 1: -0.115
Mst84Db (Male-specific RNA 84Db) [DRSC12598] | droplet/nuclear area B-score, replicate 1: 0.627
CG13337 [DRSC06371] | droplet/nuclear area B-score, replicate 1: -0.877
Or59a (Odorant receptor 59a) [DRSC04631] | droplet/nuclear area B-score, replicate 1: 1.22
cyr (cypher) [DRSC18017] | droplet/nuclear area B-score, replicate 1: 1.57
cyr (cypher) [DRSC18018] | droplet/nuclear area B-score, replicate 1: -0.505
cyr (cypher) [DRSC18021] | droplet/nuclear area B-score, replicate 1: 0.841
CG43317 [DRSC15000] | droplet/nuclear area B-score, replicate 1: 1.29
CG9686 [DRSC18439] | droplet/nuclear area B-score, replicate 1: -0.453
Kdm4A (Lysine demethylase 4A) [DRSC06586] | droplet/nuclear area B-score, replicate 1: -0.793
CG2608 [DRSC02709] | droplet/nuclear area B-score, replicate 1: -0.0626
rswl (roswell) [DRSC06923] | droplet/nuclear area B-score, replicate 1: 0.5
CG31688 [DRSC02682] | droplet/nuclear area B-score, replicate 1: -0.559
bbg (big bang) [DRSC11077] | droplet/nuclear area B-score, replicate 1: -0.244
bbg (big bang) [DRSC11079] | droplet/nuclear area B-score, replicate 1: 2.48
alpha-Cat (alpha Catenin) [DRSC11917] | droplet/nuclear area B-score, replicate 1: -2.27
AspRS (Aspartyl-tRNA synthetase) [DRSC05914] | droplet/nuclear area B-score, replicate 1: -0.933
dar1 (dendritic arbor reduction 1) [DRSC08233] | droplet/nuclear area B-score, replicate 1: -0.676
Mayo [DRSC14300] | droplet/nuclear area B-score, replicate 1: -0.214
CG3494 [DRSC04375] | droplet/nuclear area B-score, replicate 1: -1.78
gcl (germ cell-less) [DRSC07623] | droplet/nuclear area B-score, replicate 1: 1.24
GstE7 (Glutathione S transferase E7) [DRSC06677] | droplet/nuclear area B-score, replicate 1: 0.138
CG14830 [DRSC08876] | droplet/nuclear area B-score, replicate 1: -0.165
CG14830 [DRSC10200] | droplet/nuclear area B-score, replicate 1: 0.814
Hsc70-5 (Heat shock protein 70 cognate 5) [DRSC07442] | droplet/nuclear area B-score, replicate 1: 0.0945
Ilp3 (Insulin-like peptide 3) [DRSC10168] | droplet/nuclear area B-score, replicate 1: -0.378
Roc1b + Cdc5 [DRSC08687] | droplet/nuclear area B-score, replicate 1: -3.16
Mlf (Myelodysplasia/myeloid leukemia factor) [DRSC07472] | droplet/nuclear area B-score, replicate 1: 0.0141
Mur29B (Mucin related 29B) [DRSC01018] | droplet/nuclear area B-score, replicate 1: 1
Mur29B (Mucin related 29B) [DRSC02376] | droplet/nuclear area B-score, replicate 1: 0.204
Lgr4 (Leucine-rich repeat-containing G protein-coupled receptor 4) [DRSC18970] | droplet/nuclear area B-score, replicate 1: 1.46
Lgr4 (Leucine-rich repeat-containing G protein-coupled receptor 4) [DRSC19884] | droplet/nuclear area B-score, replicate 1: 0.871
RhoGDI [DRSC10919] | droplet/nuclear area B-score, replicate 1: 0.217
pico [DRSC19430] | droplet/nuclear area B-score, replicate 1: -0.351
GstD3 (Glutathione S transferase D3) [DRSC15571] | droplet/nuclear area B-score, replicate 1: 0.183
Swip-1 (Swiprosin-1) [DRSC02083] | droplet/nuclear area B-score, replicate 1: 0.0667
Swip-1 (Swiprosin-1) [DRSC02084] | droplet/nuclear area B-score, replicate 1: -1.6
